{"source": "patent US9822095B2", "about": "“Tetrazolinone compound and application thereof” (SUMITOMO CHEMICAL COMPANY, LIMITED, priority 2014, dated 2017)", "note": "Some of these results come from one statement about several compounds together."}
{"system": "cucumber powdery mildew fungus (Sphaerotheca fuliginea, a QoI-resistant strain, cytochrome b position 143 mutated from glycine to alanine)", "assay": "Test Example 1: cucumber powdery mildew control, foliar spray before inoculation", "format": "in vivo", "settings": "500 ppm foliar spray; cucumber (SAGAMI HANJIRO); inoculated after air-drying; investigated after 8 days", "units": {"area of lesion on the treated plant relative to that on an untreated plant": "%"}}
{"molecule": "Cc1ccc(-c2ccc(SCc3c(C)cccc3-n3nnn(C)c3=O)cc2)cc1", "note": "[present compound 4, 1-{2-[4-(4-methyl-phenyl)-phenylthiomethyl]-3-methylphenyl}-4-methyl-1,4-dihydrotetrazol-5-one]", "area of lesion on the treated plant relative to that on an untreated plant": "≤ 30"}
{"molecule": "Cc1ccccc1-c1ccc(SCc2c(C)cccc2-n2nnn(C)c2=O)cc1", "note": "[present compound 3, 1-{2-[4-(2-methyl-phenyl)-phenylthiomethyl]-3-methylphenyl}-4-methyl-1,4-dihydrotetrazol-5-one]", "area of lesion on the treated plant relative to that on an untreated plant": "≤ 30"}
{"molecule": "Cc1cccc(-n2nnn(C)c2=O)c1CSc1ccc(-c2cccc(Cl)c2)cc1", "note": "[present compound 5, 1-{2-[4-(3-chloro-phenyl)-phenylthiomethyl]-3-methylphenyl}-4-methyl-1,4-dihydrotetrazol-5-one]", "area of lesion on the treated plant relative to that on an untreated plant": "≤ 30"}
{"molecule": "Cc1cc(-c2ccccn2)c(C)cc1SCc1c(C)cccc1-n1nnn(C)c1=O", "note": "[present compound 11, 1-{2-[4-(pyridin-2-yl)-2,5-dimethylphenylthiomethyl]-3-methylphenyl}-4-methyl-1,4-dihydrotetrazol-5-one]", "area of lesion on the treated plant relative to that on an untreated plant": "≤ 30"}
{"molecule": "COc1ccc(-c2ccc(SCc3c(C)cccc3-n3nnn(C)c3=O)cc2)cc1", "note": "[present compound 6, 1-{2-[4-(4-methoxy-phenyl)-phenylthiomethyl]-3-methylphenyl}-4-methyl-1,4-dihydrotetrazol-5-one]", "area of lesion on the treated plant relative to that on an untreated plant": "≤ 30"}
{"molecule": "Cc1cccc(-n2nnn(C)c2=O)c1CSc1ccc(-c2ccccc2)cc1", "note": "[present compound 2, 1-{2-[4-phenyl-phenylthiomethyl]-3-methylphenyl}-4-methyl-1,4-dihydrotetrazol-5-one]", "area of lesion on the treated plant relative to that on an untreated plant": "≤ 30"}
{"molecule": "Cc1cc(-c2ccccc2C)ccc1SCc1c(C)cccc1-n1nnn(C)c1=O", "note": "[present compound 1, 1-{2-[4-(2-methyl-phenyl)-2-methylphenylthiomethyl]-3-methylphenyl}-4-methyl-1,4-dihydrotetrazol-5-one]", "area of lesion on the treated plant relative to that on an untreated plant": "≤ 30"}
{"molecule": "Cc1cc(-c2ccccc2)ccc1SCc1c(C)cccc1-n1nnn(C)c1=O", "note": "[present compound 7, 1-{2-[4-phenyl-2-methyl-phenylthiomethyl]-3-methylphenyl}-4-m ethyl-1,4-dihydrotetrazol-5-one]", "area of lesion on the treated plant relative to that on an untreated plant": "≤ 30"}
